# PubChem BioAssay AID1224830, NIAID – 2016
# Test: 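Host factors that control LPS-induced TNF expression in human macrophages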 (primary screen)
# Cells: human THP-1 monocytic leukaemia cells, TNF dual-luciferase reporter clone, PMA-differentiated to macrophage-like cells
# Reagents: siRNA pool against human genes, 50 nM
# Timing: LPS for 4 h, given about 3 days after siRNA transfection
# Treatment: bacterial LPS (TLR4 ligand), 10 ng/ml
# Read-out: 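Ratio of firefly to renilla light, scaled to the plate median and expressed as a robust z-score per replicate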
# Scale: TNF reporter robust z-score: higher = stronger TNF reporter response to LPS
# Hit rule: 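a well is active when its z-score exceeds 2.8 or falls below -1.5; control wells carry no call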
# Shown is an unselected part of about 18,000 deposited reagents. Over the whole deposit, about 2,900 (16%) are marked active. 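Calls are made per well; low scores hint the gene aids the LPS response, high scores that it dampens it.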 Repeated entries: four replicate wells of each siRNA pool. Reagent sequences are not shown.
Gene,TNF reporter robust z-score,activity call
RPH3A,0.28,inactive
RPH3A,0.74,inactive
RPH3A,-0.18,inactive
RPH3A,2.61,inactive
SORBS3,-1.06,inactive
SORBS3,-0.37,inactive
SORBS3,-1.02,inactive
SORBS3,-0.28,inactive
SPRR2G,2.84,active
SPRR2G,2.06,inactive
SPRR2G,2.72,inactive
SPRR2G,2.08,inactive
GLB1,1.11,inactive
GLB1,0.01,inactive
GLB1,1.32,inactive
GLB1,0.77,inactive
MOV10,-1.6,active
MOV10,-0.5,inactive
MOV10,-0.89,inactive
MOV10,-0.57,inactive
RCSD1,-1.59,active
RCSD1,-1.19,inactive
RCSD1,-1.58,active
RCSD1,-1.15,inactive
PCDHA1,-0.93,inactive
PCDHA1,-0.32,inactive
PCDHA1,-0.87,inactive
FAM81A,-0.13,inactive
FAM81A,1.19,inactive
FAM81A,0.08,inactive
FAM81A,-0.25,inactive
RPL37A,1.67,inactive
RPL37A,2.51,inactive
RPL37A,1.35,inactive
RPL37A,0.03,inactive
ZNF248,0.28,inactive
ZNF248,-0.74,inactive
ZNF248,-0.81,inactive
ZNF248,-0.4,inactive
RASSF1,1.27,inactive
RASSF1,2.05,inactive
RASSF1,0.51,inactive
RASSF1,2.15,inactive

Continued, starting with the last 2 of the part before.
Gene,TNF reporter robust z-score,activity call
RASSF1,0.51,inactive
RASSF1,2.15,inactive
CLIC3,1.86,inactive
CLIC3,1.2,inactive
CLIC3,0.97,inactive
CLIC3,2.35,inactive
CA1,0.51,inactive
CA1,0.62,inactive
CA1,0.71,inactive
CA1,1.39,inactive
ADCK2,-0.27,inactive
ADCK2,1.23,inactive
ADCK2,-0.26,inactive
ADCK2,0.89,inactive
MTA3,-0.92,inactive
MTA3,-0.54,inactive
MTA3,-0.36,inactive
MTA3,-0.4,inactive
LILRB3,2.23,inactive
LILRB3,1.35,inactive
LILRB3,-0.07,inactive
LILRB3,-0.04,inactive
RSF1,-0.21,inactive
RSF1,1.48,inactive
RSF1,0.26,inactive
RSF1,1.14,inactive
YEATS4,-0.66,inactive
YEATS4,-0.04,inactive
YEATS4,-0.64,inactive
YEATS4,-1.11,inactive
KRT80,-1.01,inactive
KRT80,0.19,inactive
KRT80,0.34,inactive
KRT80,0.63,inactive
GFRAL,0.18,inactive
GFRAL,1.66,inactive
GFRAL,1.63,inactive
GFRAL,1.36,inactive
RABL6,-1.35,inactive
RABL6,-0.2,inactive
RABL6,-0.59,inactive
RABL6,0,inactive
ZNF205,-1.87,active
ZNF205,-0.79,inactive
ZNF205,-1.4,inactive
ZNF205,-0.55,inactive
TMEM63B,-1.06,inactive
TMEM63B,-0.41,inactive
TMEM63B,-1.14,inactive
TMEM63B,-0.73,inactive
RPL27,-0.71,inactive
RPL27,-0.86,inactive
RPL27,-1.4,inactive
RPL27,-1.63,active
HDAC2,-1.4,inactive
HDAC2,-1.59,active
HDAC2,-0.71,inactive
HDAC2,-1.33,inactive
POM121L12,-0.89,inactive
POM121L12,-0.43,inactive
POM121L12,-0.36,inactive
POM121L12,-0.35,inactive
ISG20L2,0.7,inactive
ISG20L2,1.06,inactive
ISG20L2,0.51,inactive
ISG20L2,0.67,inactive
ZMAT3,0.19,inactive
ZMAT3,0.74,inactive
ZMAT3,2.53,inactive
ZMAT3,-0.37,inactive
